Assay results: patent US8173668B1, “Use of non-peptidic bradykinin receptor agonists to treat ocular hypertension and glaucoma” (Alcon Research, Ltd., priority 2007, dated 2012)

Test system: ocular hypertensive eyes of ketamine-sedated cynomolgus monkeys
Assay: Aqueous humor dynamics (fluorophotometry, tonography) in ketamine-sedated cynomolgus monkeys
Assay type: in vivo
Conditions: Treatment Day, Hypertensive Eye OS; one drop of 30 μl 0.01% the day before; mean ± SD
Text: Methods used in this Example were described by Yablonski et al. Invest Ophthalmol V is Sci 1987; 28:2076-2082; Hayashi et al. Exp Eye Res 1989; 48:621-625; Mäepea et al. Exp Eye Res 1989; 49:645-663, and as below:
Twelve female cynomolgus monkeys between the ages of 5 and 8 years were included in the study. All had unilateral laser treatment to the trabecular meshwork of the left eye. Lasering had been done between 2 and 4 years before the study.
Measurements were made on baseline day and after AL-42205-01 (FR-190997) treatment to both eyes. […] Fifteen hours prior to each study day, IOP1 was measured with a pneumatonometer (Classic 30, Xomed, Jacksonville, Fla.) after topical application of proparacaine HCl, 0.13%. […] The fluorescence of the cornea and anterior chamber were measured in duplicate with a scanning fluorophotometer (Fluorotron, OcuMetrics, Palo Alto, Calif.). […]
After the fourth set of scans and another IOP measurement (IOP3), an intramuscular injection of acetazolamide (12-20 mg/kg) was administered to reduce IOP by reducing aqueous flow. […] Fluorophotometric outflow facility (Cfl) was calculated as the ratio of the change in aqueous flow to the change in IOP. Uveoscleral outflow (Fus) was calculated by the equation Fus=Fa−Cfl (IOP3−Pev) where Pev is the episcleral venous pressure. […]

CNC(=O)c1ccc(/C=C/C(=O)NCC(=O)N(C)c2ccc(Cl)c(COc3cccc4c(OCc5ccccn5)cc(C)nc34)c2Cl)cc1 [FR-190997]
ACvol, anterior chamber volume: 79.8 ± 9.2 µL | CCT, central cornea thickness: 0.48 ± 0.03 mm
